# Reference: article PMC8289069, “Functional requirement of terminal inverted repeats for efficient ProtoRAG activity reveals the early evolution of V(D)J recombination”
# For at least one entry, the source does not settle the construct or the ends of the probe. For some of these results: A weaker result is weaker than the reference pair of the same experiment. For some of these results: At least one verdict rests on a figure or table, not on a statement of the authors. For some of these results: Tags and fusion partners may be left off the protein sequences shown. For some of these results: At least one result comes from cells or an extract, where the contact may be indirect. For some of these results: No signal at the amounts used counts as a negative.
# Legend:
# [1] = molecular target: T1, BbRAG1F (UniProt A0A185KID9); experiment: DNA-binding assay (type not stated); conditions: NBD* alone, nonspecific; recombinant protein; label: 5' biotin on strand 1
# [2] = tested on: BbRAG1C + BbRAG2L; experiment: pull-down; conditions: 1.5 mM Ca2+; pull-down: 50 mM Tris pH 7.5, 150 mM NaCl, 0.5% NP40, 5% glycerol, 1.5 mM CaCl2, 4 C; recombinant protein; protein details: N-terminal MBP,N-terminal MBP; label: 5' biotin on strand 1
# [3] = tested on: BbRAG1D + BbRAG2L; experiment: pull-down; conditions: 1.5 mM Ca2+; pull-down: 50 mM Tris pH 7.5, 150 mM NaCl, 0.5% NP40, 5% glycerol, 1.5 mM CaCl2, 4 C; recombinant protein; protein details: N-terminal MBP,N-terminal MBP; label: 5' biotin on strand 1
# [4] = molecular target: T1, BbRAG1F; experiment: pull-down; conditions: co-expressed with BbRAG2L, text says NBD* alone interacts weakly (with 'BbRAG1L', apparently 5'TIR); pull-down: 50 mM Tris pH 7.5, 150 mM NaCl, 0.5% NP40, 5% glycerol, 1.5 mM CaCl2, 4 C; recombinant protein; label: 5' biotin on strand 1
# [5] = tested on: BbRAG1E + BbRAG2L; experiment: pull-down; conditions: 1.5 mM Ca2+; pull-down: 50 mM Tris pH 7.5, 150 mM NaCl, 0.5% NP40, 5% glycerol, 1.5 mM CaCl2, 4 C; protein in a lysate after overexpression; protein details: N-terminal MBP,N-terminal MBP; label: 5' biotin on strand 1
# [6] = tested on: BbRAG1L + BbRAG2L; experiment: EMSA; conditions: 1.5 mM Ca2+, HMGB1; EMSA: 25 mM MOPS pH 7.0, 50 mM KCl, 2 mM DTT, 1.5 mM CaCl2, 2.5% glycerol, 50 nM HMGB1, 100 nM ss nonspecific oligo, ~50 nM each RAG, 25 C 20 min; recombinant protein; protein details: N-terminal MBP,N-terminal MBP; label: 5' biotin on strand 1
# [7] = tested on: BbRAG1C + BbRAG2L; experiment: EMSA; conditions: 1.5 mM Ca2+, HMGB1; EMSA: 25 mM MOPS pH 7.0, 50 mM KCl, 2 mM DTT, 1.5 mM CaCl2, 2.5% glycerol, 50 nM HMGB1, 100 nM ss nonspecific oligo, ~50 nM each RAG, 25 C 20 min; recombinant protein; protein details: N-terminal MBP,N-terminal MBP; label: 5' biotin on strand 1
# [8] = tested on: BbRAG1D + BbRAG2L; experiment: EMSA; conditions: 1.5 mM Ca2+, HMGB1, slightly enhanced vs BbRAG1C; EMSA: 25 mM MOPS pH 7.0, 50 mM KCl, 2 mM DTT, 1.5 mM CaCl2, 2.5% glycerol, 50 nM HMGB1, 100 nM ss nonspecific oligo, ~50 nM each RAG, 25 C 20 min; recombinant protein; protein details: N-terminal MBP,N-terminal MBP; label: 5' biotin on strand 1
# [9] = molecular target: T2, mRAG1F (mouse) (UniProt P15919); experiment: DNA-binding assay (type not stated); conditions: binds 12RSS specifically; recombinant protein; label: 5' biotin on strand 1
# T2 sequence (looked up, limits assumed): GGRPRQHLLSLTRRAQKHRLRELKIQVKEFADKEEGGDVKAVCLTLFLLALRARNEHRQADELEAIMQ
Sequence,binding result [1],binding result [2],binding result [3],binding result [4],binding result [5],binding result [6],binding result [7],binding result [8],binding result [9]
CGGACTCAGATCTCGAGCACTATGAAAACTTACGTGTGCATAAGGTCGGCGGCCATCTTGGTAATG (double strand) [5'TIR],binds,binds,binds,binds more weakly,no binding,binds,binds,binds,
CGGACTCAGATCTCGAGCACTATGAAAACTTACGTGTGCATAAGGTCGGCGGTAATG (double strand) [5'TIR-deltaN],binds,,,,,,,,
CGGACTCAGATCTCGAGTCCAGAAGTCGCTCGACTGTGGTTTAATCGCTTGTAGCGTGGTCTGGTAATG (double strand) [NSP],binds,,binds,,,,,,
GATCTGGCCTGTCTTACACAGTGATACAGACCTTACTCTGGCTGCTGCAG (double strand) [12RSS-deltaN],,,,,,,,,binds more weakly
GATCTGGCCTGTCTTAGGTCAATGCTGTAGAACTCGTCCTGTACCTGCAG (double strand) [RNSP],,,,,,,,,binds more weakly
GGTGGATCCCGGGCCCCACTATGATACTTACGCTATACCCAGCAGTGTCTGGTCGCCATCTTGTAAGAT (double strand) [3'TIR],,binds,binds,,no binding,binds,binds,binds,
